The nature of this test: qHTS Assay for Lipid Storage Modulators in Drosophila S3 Cells.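 For cell number change: cells counted by Cell Tracker Red CMTPX staining in the red channel.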 The settings on record: BODIPY lipid droplet fluorescence, 18-24 h; for cell number change: measured here: cell count max response, cells fed with added oleic acid. Summed up: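 Drosophila S3 cells loaded with oleic acid (400 uM, as added) and compounds at several concentrations; lipid droplets imaged by 488-nm laser-scanning cytometry, 500–530 nm intensity and object ratio to cell channel. Percent activity normalized to 20 uM Triacsin C.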
(In qHTS, concentration-response curves come from the screen itself.)

Where [1] appears, read: measured here: cell number channel AC50, cells fed with added oleic acid.
The mark [2] stands for this setting: measured here: lipid fluorescence (Fed channel) AC50, cells fed with added oleic acid.

Some of the results follow. Shown are side measurements of this screen, not its main read-out; they come without a call. Compounds called inactive in the main read-out are mostly missing here. Words in brackets tell the shape of the fitted curve; partial curves, single points and poor fits give uncertain potencies.

On to `COC(=O)CSc1nc2c(cnn2-c2ccc(Cl)cc2)c(=O)[nH]1`, for which the cell number change came out at 31%.

As for `COC(=O)C1=C(NC(=O)c2cccc(OC)c2)CCS1`, the cell number change is 26.3%.

As a reminder, the AC50 is the midpoint of the concentration-response curve, whichever way the signal moves. The low end stands for greater potency, the high end for weaker potency. Take `Cc1ccc(NC(=O)CSc2nnc(NC(=O)c3ccc(S(=O)(=O)N4CCOCC4)cc3)s2)cc1`: the cell number change was -17.2%. The AC50 under setting [1] was 3.26 µM [falling, partial curve].

With `COc1ccc(NC(=O)COC(=O)[C@@H]2CCCN2C(=O)c2cccs2)cc1`, the AC50 under setting [2] is 23.1 µM [falling, partial curve].

On to `Cc1nn(-c2ccccc2)c(Cl)c1C(=O)NNC(=O)c1ccccc1O`, for which the cell number change is -11.5%. Also, the half-maximal activity concentration (AC50) under setting [2] was 18.4 µM [falling, partial curve, poor fit].

For the compound `COc1ccc(C(=O)Nc2cc3c(cc2C(=O)O)OCCCO3)c(OC)c1`, the cell number change is -1.3%.

Turning to `NC(=O)C1CCN(C(=O)c2cc3ccccn3n2)CC1`, the cell number change was -41.5%. Moreover, the AC50 under setting [1] was 29.1 µM [falling, single point]. Besides, the AC50 under setting [2] is 0.0058 µM [falling, full curve, poor fit].

For `Clc1ccc(Oc2nc(Oc3ccc(Cl)cc3)nc(N3CCOCC3)n2)cc1`, the cell number change was -28.8%. Also, the AC50 under setting [2] was 6.51 µM [falling, partial curve].

`CCOC(=O)c1[nH]c(C)c(C(=O)Nc2ccc(C)cc2C)c1C`: the cell number change was -30.3%. Moreover, the AC50 under setting [1] is 18.4 µM [falling, single point].

As to `C=CCn1c(SC(C)C(=O)Nc2ccc(Cl)cn2)nnc1C1CC1` (stereo not drawn), the cell number change is -21.3%.

Regarding `CC(C)C(=O)Nc1ccc2c(c1)Cc1cc(NC(=O)C(C)C)ccc1-2`, the cell number change was determined as 29.3%. The AC50 under setting [2] was 0.00461 µM [rising, full curve, poor fit].

On to `CC1Cc2ccccc2N1CC(=O)Nc1ccc2c(c1)OCO2` (stereo not drawn), for which the AC50 reads like this: under setting [1], 1.64 µM [rising, partial curve]; under setting [2], 2.06 µM [rising, partial curve].

For the compound `COc1ccc(Oc2coc3cc(O)ccc3c2=O)cc1`, the cell number change is -25.4%.

`O=C(c1ccccc1)N1CCN(c2n[nH]c(=O)[nH]c2=O)CC1`: the cell number change is -52.5%. Under setting [1], the AC50 is 0.411 µM [falling, full curve].

On to `Cc1ccc(S(=O)(=O)N(CC(=O)Nc2cccnc2)c2ccc(Br)cc2)cc1`, for which the cell number change was -21.1%. Further, the AC50 under setting [2] was 3.66 µM [falling, single point].

Turning to `CCOC(=O)c1cc(S(=O)(=O)N2CC(C)CC(C)C2)cn1C` (stereo not drawn), the cell number change was found to be 64%. For the same compound, under setting [1], the AC50 was 29.1 µM [rising, single point].

Turning to `O=C(COc1ccc(Cl)cc1Cl)NNC(=S)NCc1ccco1`, the cell number change is -33.7%. For the same compound, the AC50 under setting [1] was 32.6 µM [falling, partial curve, poor fit]. In addition, the AC50 under setting [2] is 0.731 µM [falling, full curve, poor fit].

Turning to `CC1CCCC(NC(=O)c2ccc(CNc3c(N4CCCC4)c(=O)c3=O)cc2)C1C` (stereo not drawn), the AC50 under setting [2] is 6.51 µM [falling, single point].

As to `COc1ccc(/C=C/C(=O)OCC(=O)Nc2ccc(N3CCOCC3)cc2)cc1`, the cell number change came out at 31.6%. In addition, under setting [2], the AC50 was 29.1 µM [rising, single point].

For the compound `Clc1ccc(OCCCN2CCc3ccccc3C2)c(Br)c1`, the cell number change was -40.7%. Besides, the AC50 under setting [1] is 13 µM [falling, single point]. For the same compound, under setting [2], the AC50 is 29.1 µM [falling, single point].

Regarding `COc1ccccc1N1C(=O)c2ccc(C(=O)Nc3nccs3)cc2C1=O`, the cell number change turned out to be 58.9%. Also, the AC50 under setting [1] was 8.2 µM [rising, partial curve, poor fit]. Also, the AC50 under setting [2] was 29.1 µM [rising, partial curve, poor fit].

`O=S(=O)(Nc1cccc(-n2cnnn2)c1)c1ccccc1F`: the cell number change is -18.9%.

With `COc1ccc2[nH]c(=O)c(CN(CCc3cccc(C)c3)C(C)=O)cc2c1`, the cell number change is -12.1%. Under setting [2], the AC50 is 1.84 µM [falling, partial curve].

Take `COc1ccc(/C=C(\NC(=O)c2ccc(OCC(C)C)cc2)C(=O)OCc2ccco2)cc1`: the cell number change is -1.32%. In addition, the AC50 under setting [2] is 4.61 µM [falling, partial curve, poor fit].

As for `NC(=O)c1ccc(NC(=O)Cc2ccc(S(=O)(=O)N3CCCCC3)cc2)cc1`, the cell number change was 6.52%. For the same compound, the AC50 under setting [2] is 10.3 µM [rising, partial curve].

Turning to `O=c1cc2c(=O)oc3cc(O)c(O)oc3c2c(O)c1O`, the cell number change was -21.9%. The AC50 under setting [2] was 4.11 µM [rising, single point].

For `CC1CN(S(=O)(=O)c2ccccc2)CC(C)O1` (stereo not drawn), the cell number change is -5.03%. Further, the AC50 under setting [2] was 2.06 µM [falling, full curve].

As for `CC(=O)c1cc(-c2ccccc2)n(CC(=O)N2CCCC2)c1C`, the cell number change was -23.1%. Moreover, under setting [2], the AC50 is 32.6 µM [falling, partial curve, poor fit].

Take `Cc1ccc(CNC(=O)[C@H](C)NC(=O)C2CCN(C(=O)[C@@H]3CCCN3C(=O)OC(C)(C)C)CC2)cc1`: the cell number change was determined as 1.27%. Further, the AC50 under setting [2] is 29.1 µM [falling, single point].

`COc1ccc(-n2nc(C(=O)NCC(=O)NCC3COc4ccccc4O3)c3ccccc3c2=O)cc1OC` (stereo not drawn): the AC50 under setting [2] is 0.13 µM [falling, full curve, poor fit].

Consider `CCCCC(C(=O)NC(C)(C)C)N(Cc1ccco1)C(=O)c1snc(C(N)=O)c1N` (stereo not drawn), for which the cell number change is 20.4%. Further, under setting [1], the AC50 was 1.64 µM [rising, full curve, poor fit].

In the case of `CSc1ccc(S(=O)(=O)NCC(=O)OCC(=O)NCCc2ccccc2)cc1[N+](=O)[O-]`, the cell number change is -30.8%. The AC50 under setting [1] is 29.1 µM [falling, single point]. In addition, the AC50 under setting [2] was 3.66 µM [falling, full curve].

For the compound `CCCCC(=O)Nc1ncc(Br)s1`, the cell number change stood at 3.51%.

For the compound `Cc1ccc(C(=O)OCC(=O)Nc2ccc(F)c(Cl)c2)o1`, the cell number change is -18.6%.

Take `CC1CN(C(=O)c2ccn(C)n2)CC(C)O1` (stereo not drawn): the AC50 under setting [2] was 0.731 µM [falling, full curve, poor fit].

On to `O=C(O)Cc1ccc(NC(=O)c2cccs2)cc1`, for which the cell number change was -39.1%. In addition, under setting [1], the AC50 is 0.231 µM [falling, full curve, poor fit]. Under setting [2], the concentration at half-maximal activity (AC50) was 0.231 µM [falling, full curve].

Regarding `COc1cc(OC)cc(C(=O)Nc2ccccc2-c2nnn(CC(N)=O)n2)c1`, the cell number change was determined as 39.7%. Further, the AC50 under setting [1] was 29.1 µM [rising, single point]. Further, the AC50 under setting [2] is 23.1 µM [rising, single point].

As for `CN(CC(=O)Nc1ccccc1)CC(=O)Nc1ccc(F)cc1`, the cell number change was 30.5%. In addition, under setting [1], the AC50 was 13 µM [rising, single point].

As to `CC(C)CC1C2C(=O)N(c3ccccc3)C(=O)C2ON1c1ccccc1` (stereo not drawn), the cell number change is -11.5%. Moreover, the AC50 under setting [2] was 0.517 µM [falling, full curve].

Source of the values: PubChem BioAssay AID2685 (National Center for Advancing Translational Sciences (NCATS), 2010).
